From paper doi:10.1101/2021.10.26.465931
Results are given in words; binding and its absence hold for the method and conditions named. Binding seen in cells or lysates may run through a third protein. Some results given as binding are weak or reduced against the parent protein; the word gives no strength.

The chains behind the UniProt entries cited, without tags or fusion partners.
UniProt Q96GM5: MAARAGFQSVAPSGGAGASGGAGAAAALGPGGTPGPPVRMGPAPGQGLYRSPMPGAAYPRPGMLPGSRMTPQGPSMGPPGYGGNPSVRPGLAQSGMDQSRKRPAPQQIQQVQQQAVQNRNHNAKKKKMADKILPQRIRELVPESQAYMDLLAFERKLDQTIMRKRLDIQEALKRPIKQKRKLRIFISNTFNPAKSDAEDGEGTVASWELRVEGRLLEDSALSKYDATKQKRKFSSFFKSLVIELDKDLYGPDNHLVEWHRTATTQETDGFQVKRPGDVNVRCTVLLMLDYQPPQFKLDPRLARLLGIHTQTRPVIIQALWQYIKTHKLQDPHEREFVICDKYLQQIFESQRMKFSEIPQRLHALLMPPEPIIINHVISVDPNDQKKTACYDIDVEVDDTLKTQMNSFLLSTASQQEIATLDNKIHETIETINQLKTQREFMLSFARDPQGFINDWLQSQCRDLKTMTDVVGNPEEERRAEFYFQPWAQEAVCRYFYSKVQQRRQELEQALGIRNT
UniProt Q12824: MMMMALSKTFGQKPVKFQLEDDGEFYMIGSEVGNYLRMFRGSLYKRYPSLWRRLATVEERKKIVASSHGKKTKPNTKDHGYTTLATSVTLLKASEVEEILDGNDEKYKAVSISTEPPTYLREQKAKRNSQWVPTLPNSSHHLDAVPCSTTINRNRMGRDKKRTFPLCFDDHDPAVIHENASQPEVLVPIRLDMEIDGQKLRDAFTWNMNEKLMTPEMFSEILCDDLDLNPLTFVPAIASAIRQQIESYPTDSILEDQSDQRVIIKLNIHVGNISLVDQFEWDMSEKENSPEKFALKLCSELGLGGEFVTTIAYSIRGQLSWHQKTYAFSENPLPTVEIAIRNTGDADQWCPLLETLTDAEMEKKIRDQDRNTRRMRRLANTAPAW
UniProt O96019: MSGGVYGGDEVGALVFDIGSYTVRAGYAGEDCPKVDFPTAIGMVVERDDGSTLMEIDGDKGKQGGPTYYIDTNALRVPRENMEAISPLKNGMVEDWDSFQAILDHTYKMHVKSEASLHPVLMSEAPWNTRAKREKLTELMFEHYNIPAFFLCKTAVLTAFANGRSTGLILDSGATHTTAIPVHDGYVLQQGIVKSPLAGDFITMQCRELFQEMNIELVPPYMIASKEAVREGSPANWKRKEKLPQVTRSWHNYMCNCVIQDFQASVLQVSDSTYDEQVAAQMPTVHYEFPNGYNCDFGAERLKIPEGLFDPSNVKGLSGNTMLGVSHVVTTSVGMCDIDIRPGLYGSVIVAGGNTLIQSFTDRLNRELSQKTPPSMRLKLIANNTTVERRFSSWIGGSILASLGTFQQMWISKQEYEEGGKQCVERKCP
UniProt Q969G3: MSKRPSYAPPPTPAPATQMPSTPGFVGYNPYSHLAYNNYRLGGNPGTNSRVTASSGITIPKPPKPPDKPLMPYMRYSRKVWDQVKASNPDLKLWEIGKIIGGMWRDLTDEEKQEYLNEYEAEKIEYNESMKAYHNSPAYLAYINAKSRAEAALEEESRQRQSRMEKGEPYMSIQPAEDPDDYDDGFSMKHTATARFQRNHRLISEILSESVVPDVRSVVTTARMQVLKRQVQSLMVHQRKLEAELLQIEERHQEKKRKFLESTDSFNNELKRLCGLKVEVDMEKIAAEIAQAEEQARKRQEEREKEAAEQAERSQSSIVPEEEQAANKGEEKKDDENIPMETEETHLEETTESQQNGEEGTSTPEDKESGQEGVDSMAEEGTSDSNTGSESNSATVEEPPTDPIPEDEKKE
UniProt Q92922: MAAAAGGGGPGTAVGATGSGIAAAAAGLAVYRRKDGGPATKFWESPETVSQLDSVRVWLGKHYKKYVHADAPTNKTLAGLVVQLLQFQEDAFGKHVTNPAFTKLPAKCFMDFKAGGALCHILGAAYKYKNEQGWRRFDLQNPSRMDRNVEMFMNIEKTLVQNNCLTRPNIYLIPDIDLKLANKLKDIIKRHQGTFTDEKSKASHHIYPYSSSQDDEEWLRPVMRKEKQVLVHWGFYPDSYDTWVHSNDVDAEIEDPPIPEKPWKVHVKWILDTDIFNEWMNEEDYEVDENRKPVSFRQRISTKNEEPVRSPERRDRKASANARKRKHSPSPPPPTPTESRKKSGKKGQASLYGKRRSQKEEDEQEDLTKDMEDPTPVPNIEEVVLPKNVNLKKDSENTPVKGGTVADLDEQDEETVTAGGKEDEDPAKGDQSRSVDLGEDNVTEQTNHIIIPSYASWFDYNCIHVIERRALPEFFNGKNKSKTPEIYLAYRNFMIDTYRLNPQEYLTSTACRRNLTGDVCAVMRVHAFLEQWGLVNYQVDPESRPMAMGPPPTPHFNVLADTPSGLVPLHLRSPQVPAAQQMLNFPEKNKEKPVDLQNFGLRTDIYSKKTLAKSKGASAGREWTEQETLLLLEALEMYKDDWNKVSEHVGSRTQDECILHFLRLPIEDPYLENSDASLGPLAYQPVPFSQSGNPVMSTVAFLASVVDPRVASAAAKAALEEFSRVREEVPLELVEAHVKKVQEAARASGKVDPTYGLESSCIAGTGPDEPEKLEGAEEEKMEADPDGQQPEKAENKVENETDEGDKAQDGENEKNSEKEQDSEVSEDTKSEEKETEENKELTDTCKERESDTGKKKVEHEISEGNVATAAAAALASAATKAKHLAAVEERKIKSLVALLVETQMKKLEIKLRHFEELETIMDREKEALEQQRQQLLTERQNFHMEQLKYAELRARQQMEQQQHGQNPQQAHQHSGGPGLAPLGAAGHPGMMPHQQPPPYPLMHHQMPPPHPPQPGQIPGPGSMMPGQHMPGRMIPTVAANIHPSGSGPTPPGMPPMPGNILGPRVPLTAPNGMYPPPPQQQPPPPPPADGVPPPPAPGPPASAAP
UniProt Q92785: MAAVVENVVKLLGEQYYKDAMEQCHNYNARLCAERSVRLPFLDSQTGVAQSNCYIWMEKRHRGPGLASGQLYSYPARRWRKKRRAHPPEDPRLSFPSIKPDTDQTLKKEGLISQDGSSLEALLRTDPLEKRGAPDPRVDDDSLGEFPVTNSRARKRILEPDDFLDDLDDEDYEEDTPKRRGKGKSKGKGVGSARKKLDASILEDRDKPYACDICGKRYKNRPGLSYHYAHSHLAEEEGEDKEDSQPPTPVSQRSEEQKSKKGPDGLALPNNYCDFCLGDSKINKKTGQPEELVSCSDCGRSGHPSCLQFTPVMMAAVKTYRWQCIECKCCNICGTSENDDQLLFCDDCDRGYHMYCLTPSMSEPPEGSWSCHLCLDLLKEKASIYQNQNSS
UniProt Q15532: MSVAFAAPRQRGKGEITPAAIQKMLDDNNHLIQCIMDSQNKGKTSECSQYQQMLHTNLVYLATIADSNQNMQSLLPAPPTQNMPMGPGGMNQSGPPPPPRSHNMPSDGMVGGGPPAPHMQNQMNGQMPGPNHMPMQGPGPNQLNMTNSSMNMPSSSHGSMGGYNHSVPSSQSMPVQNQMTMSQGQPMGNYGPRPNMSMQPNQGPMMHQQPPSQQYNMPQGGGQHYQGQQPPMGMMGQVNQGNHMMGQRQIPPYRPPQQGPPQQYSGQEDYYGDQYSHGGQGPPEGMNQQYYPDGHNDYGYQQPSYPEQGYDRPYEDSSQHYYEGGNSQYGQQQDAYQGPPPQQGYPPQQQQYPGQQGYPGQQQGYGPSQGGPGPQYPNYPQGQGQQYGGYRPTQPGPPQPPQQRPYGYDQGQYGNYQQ

Biological target: BAF60A with an N-terminal 3xFLAG tag (human) (UniProt Q96GM5)
Assay: co-IP

Substance | binding
BAF47 (from UniProt Q12824 1-385) | binds
BAF53A (from UniProt O96019 1-429) | binds
BAF57 with an N-terminal single-chain tetracycline repressor DNA binding domain (scTetR) (from UniProt Q969G3 1-411) | binds
BAF155 (from UniProt Q92922 1-1105) | binds
DPF2 (from UniProt Q92785 1-391) | binds
SS18 (from UniProt Q15532 1-418) | binds
endogenous BAF57 (from UniProt Q969G3 1-411) | binds
